Assay results from US20180282397A1.
No constants are given. Whether binding was seen depends on the method and setting. Some binding calls cover weakened binding; strength is not graded here.

What was measured:
K-Ras(G12V)-GTP (human) [1] = experiment: radioactive in vitro pull-down of [35S]Met-labelled RasIn1 on bead-immobilised target [a]
K-Ras(G12V)-GTP (human) [2] = experiment: radioactive in vitro pull-down of [35S]Met-labelled RasIn1 on bead-immobilised target [b]
K-Ras(G12V)-GTP (human) [3] = experiment: radioactive in vitro pull-down of [35S]-labelled RasIn1 and point mutants on immobilised K-Ras-GTP [a]
K-Ras(G12V)-GTP (human) [4] = experiment: radioactive in vitro pull-down

Measured: binding

B1: RasIn1 (designed binder)
chain: MLEVKEASPTSIQISWGPVFSAYSRYYRITYGETGGNSPVQEFTVPGSKSAATISGLKPGVDYTITVYAVTFRWPMPRLVRPISINYRT
binds: all assays above
